Paper PMC7284315

Chains of the proteins cited; added tags and fusions are not shown. Lines headed by an entry give the natural chain unless they say otherwise; changes in a name come on top.
UniProt Q2M2I3: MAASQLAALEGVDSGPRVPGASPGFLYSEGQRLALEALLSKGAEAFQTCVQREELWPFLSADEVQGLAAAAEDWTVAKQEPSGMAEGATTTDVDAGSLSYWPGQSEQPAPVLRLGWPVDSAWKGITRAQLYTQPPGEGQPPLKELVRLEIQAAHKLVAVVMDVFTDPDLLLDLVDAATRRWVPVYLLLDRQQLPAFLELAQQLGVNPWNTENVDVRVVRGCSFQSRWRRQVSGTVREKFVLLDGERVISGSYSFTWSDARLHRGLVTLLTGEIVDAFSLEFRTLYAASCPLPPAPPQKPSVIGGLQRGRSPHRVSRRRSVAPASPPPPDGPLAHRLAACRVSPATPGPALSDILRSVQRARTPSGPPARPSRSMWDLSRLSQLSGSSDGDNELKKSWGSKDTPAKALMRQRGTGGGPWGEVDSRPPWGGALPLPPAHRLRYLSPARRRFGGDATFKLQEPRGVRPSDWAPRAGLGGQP
UniProt P48730: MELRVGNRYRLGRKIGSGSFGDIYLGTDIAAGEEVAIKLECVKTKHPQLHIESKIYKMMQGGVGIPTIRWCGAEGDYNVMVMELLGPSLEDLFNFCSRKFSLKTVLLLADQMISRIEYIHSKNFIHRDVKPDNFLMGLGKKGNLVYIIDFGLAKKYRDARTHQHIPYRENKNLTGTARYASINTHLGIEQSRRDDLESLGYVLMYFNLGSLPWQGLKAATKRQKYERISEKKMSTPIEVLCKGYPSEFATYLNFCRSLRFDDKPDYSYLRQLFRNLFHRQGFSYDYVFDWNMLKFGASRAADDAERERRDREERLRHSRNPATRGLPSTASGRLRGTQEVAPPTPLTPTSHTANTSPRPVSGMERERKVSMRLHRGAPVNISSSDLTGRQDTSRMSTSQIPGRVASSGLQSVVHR
UniProt P49674: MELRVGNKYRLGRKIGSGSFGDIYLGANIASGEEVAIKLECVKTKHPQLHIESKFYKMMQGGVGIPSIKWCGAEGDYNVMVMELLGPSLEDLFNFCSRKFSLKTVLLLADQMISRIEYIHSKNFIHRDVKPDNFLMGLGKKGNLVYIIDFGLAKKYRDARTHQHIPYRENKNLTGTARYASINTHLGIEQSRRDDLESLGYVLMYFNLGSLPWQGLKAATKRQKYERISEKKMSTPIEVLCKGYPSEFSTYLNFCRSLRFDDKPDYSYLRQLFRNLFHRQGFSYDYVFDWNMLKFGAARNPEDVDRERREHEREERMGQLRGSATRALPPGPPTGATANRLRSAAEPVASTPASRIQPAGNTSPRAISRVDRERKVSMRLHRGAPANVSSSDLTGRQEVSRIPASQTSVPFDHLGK
UniProt P48729: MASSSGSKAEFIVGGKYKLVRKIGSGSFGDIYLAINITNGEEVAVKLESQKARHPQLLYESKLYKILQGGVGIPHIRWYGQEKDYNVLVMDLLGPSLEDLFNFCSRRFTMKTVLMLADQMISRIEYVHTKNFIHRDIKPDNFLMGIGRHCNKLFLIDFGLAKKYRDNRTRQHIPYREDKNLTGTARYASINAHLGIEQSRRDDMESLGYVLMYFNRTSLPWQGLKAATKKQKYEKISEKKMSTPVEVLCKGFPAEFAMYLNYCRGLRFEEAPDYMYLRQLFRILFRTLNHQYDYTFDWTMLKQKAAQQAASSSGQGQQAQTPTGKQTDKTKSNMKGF
UniProt Q7Z7G8: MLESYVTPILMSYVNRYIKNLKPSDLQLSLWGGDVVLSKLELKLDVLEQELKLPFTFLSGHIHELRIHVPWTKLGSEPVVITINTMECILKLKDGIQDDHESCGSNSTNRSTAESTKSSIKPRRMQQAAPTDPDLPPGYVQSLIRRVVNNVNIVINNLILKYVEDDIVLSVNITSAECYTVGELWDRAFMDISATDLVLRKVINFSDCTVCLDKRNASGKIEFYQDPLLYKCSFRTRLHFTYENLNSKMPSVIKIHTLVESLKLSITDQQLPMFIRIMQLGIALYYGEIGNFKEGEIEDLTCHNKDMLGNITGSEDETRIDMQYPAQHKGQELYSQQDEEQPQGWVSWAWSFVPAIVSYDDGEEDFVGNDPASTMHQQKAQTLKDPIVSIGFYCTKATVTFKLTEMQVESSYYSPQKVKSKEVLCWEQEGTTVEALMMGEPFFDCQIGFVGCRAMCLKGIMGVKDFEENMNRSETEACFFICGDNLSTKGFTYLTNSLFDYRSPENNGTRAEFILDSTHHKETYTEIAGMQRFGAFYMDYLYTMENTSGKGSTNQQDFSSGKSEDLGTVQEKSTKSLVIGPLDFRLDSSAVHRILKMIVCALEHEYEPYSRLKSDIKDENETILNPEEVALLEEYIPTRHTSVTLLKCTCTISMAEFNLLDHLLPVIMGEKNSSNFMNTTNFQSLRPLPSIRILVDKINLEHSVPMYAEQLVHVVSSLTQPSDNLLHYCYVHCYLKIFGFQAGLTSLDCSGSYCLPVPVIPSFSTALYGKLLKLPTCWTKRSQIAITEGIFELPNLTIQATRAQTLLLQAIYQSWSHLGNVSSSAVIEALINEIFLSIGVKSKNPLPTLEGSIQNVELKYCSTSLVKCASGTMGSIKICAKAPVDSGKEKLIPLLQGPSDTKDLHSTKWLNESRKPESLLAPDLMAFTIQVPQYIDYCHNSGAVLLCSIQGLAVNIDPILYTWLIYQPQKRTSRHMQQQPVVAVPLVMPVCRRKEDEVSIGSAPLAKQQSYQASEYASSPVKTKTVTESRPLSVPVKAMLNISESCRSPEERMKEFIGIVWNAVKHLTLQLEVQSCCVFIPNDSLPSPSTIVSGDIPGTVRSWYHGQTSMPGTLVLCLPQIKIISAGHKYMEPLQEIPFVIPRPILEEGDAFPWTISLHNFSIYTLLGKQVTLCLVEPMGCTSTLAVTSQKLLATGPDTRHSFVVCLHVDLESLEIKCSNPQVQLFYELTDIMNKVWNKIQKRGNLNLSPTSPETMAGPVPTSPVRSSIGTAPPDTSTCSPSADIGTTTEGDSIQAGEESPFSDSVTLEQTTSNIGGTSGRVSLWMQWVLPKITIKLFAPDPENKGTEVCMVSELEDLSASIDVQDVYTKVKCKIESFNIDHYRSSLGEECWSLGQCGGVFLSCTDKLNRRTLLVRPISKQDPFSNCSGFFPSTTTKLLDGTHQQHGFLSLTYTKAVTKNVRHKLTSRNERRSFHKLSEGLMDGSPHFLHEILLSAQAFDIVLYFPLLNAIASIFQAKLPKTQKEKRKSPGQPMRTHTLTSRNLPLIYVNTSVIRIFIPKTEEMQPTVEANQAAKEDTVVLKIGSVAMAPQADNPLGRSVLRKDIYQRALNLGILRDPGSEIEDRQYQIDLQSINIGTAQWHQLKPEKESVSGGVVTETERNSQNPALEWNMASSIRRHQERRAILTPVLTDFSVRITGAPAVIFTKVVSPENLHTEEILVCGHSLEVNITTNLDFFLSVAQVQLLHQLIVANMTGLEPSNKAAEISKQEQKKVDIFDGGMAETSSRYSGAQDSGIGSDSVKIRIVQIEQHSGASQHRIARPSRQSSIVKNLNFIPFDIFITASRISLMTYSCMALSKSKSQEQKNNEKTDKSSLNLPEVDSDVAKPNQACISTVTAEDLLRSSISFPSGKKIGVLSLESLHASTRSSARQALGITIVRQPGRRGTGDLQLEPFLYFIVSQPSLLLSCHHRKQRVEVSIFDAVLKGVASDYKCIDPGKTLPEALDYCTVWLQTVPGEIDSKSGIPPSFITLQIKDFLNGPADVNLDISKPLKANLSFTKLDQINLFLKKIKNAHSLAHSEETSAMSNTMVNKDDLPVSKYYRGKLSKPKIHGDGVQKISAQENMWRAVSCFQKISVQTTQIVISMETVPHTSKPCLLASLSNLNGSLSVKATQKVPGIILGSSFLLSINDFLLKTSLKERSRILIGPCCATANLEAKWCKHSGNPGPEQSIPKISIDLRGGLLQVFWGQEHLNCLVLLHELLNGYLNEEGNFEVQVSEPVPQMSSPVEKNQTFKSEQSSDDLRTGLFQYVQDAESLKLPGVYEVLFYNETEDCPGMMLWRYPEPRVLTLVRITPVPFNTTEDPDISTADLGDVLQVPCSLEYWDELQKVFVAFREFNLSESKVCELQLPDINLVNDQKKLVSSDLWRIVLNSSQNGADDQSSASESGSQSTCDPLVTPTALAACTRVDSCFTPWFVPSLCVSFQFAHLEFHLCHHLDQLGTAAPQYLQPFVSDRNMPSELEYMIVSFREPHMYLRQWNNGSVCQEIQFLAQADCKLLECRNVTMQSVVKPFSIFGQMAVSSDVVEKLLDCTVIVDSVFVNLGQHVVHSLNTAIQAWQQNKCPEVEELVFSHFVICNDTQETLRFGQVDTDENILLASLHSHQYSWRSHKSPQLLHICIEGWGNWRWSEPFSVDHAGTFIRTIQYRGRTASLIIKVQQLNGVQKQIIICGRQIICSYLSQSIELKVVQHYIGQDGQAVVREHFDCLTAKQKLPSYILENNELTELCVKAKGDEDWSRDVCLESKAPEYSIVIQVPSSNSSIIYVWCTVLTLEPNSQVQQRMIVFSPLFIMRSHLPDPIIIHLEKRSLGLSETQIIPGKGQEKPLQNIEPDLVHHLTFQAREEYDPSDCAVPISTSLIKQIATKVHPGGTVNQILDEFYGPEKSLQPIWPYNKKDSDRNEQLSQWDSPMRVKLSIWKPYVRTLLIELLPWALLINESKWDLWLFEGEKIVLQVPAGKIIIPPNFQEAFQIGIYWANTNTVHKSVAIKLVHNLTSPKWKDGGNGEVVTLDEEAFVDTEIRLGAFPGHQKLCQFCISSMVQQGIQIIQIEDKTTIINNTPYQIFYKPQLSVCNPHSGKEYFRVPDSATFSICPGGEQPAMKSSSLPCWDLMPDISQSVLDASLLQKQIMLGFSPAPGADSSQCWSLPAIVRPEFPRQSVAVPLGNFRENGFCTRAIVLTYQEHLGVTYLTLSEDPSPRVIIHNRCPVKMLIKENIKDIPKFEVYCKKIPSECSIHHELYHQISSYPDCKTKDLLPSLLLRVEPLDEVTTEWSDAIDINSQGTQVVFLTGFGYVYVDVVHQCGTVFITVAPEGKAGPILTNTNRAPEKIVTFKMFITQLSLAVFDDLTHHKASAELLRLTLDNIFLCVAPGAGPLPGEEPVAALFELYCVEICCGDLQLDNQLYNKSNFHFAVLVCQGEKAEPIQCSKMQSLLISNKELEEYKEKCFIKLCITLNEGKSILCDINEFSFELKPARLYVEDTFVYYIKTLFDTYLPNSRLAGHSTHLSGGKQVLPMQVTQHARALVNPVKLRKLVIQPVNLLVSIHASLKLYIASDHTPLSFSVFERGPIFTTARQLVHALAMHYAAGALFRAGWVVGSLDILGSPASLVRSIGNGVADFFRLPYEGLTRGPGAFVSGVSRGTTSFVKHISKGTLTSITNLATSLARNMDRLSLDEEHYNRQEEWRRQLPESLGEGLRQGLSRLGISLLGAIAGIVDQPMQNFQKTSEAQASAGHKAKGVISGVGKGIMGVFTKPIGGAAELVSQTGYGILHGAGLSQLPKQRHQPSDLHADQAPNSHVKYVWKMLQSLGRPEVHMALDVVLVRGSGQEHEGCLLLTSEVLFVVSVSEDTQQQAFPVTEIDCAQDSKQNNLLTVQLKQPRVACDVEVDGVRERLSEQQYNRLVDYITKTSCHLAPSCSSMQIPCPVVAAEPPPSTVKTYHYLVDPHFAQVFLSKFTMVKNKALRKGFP

T1: FAM83H-GFP (U2OS Flp-In T-REx, doxycycline-induced) (human) (UniProt Q6ZRV2)
T1 sequence: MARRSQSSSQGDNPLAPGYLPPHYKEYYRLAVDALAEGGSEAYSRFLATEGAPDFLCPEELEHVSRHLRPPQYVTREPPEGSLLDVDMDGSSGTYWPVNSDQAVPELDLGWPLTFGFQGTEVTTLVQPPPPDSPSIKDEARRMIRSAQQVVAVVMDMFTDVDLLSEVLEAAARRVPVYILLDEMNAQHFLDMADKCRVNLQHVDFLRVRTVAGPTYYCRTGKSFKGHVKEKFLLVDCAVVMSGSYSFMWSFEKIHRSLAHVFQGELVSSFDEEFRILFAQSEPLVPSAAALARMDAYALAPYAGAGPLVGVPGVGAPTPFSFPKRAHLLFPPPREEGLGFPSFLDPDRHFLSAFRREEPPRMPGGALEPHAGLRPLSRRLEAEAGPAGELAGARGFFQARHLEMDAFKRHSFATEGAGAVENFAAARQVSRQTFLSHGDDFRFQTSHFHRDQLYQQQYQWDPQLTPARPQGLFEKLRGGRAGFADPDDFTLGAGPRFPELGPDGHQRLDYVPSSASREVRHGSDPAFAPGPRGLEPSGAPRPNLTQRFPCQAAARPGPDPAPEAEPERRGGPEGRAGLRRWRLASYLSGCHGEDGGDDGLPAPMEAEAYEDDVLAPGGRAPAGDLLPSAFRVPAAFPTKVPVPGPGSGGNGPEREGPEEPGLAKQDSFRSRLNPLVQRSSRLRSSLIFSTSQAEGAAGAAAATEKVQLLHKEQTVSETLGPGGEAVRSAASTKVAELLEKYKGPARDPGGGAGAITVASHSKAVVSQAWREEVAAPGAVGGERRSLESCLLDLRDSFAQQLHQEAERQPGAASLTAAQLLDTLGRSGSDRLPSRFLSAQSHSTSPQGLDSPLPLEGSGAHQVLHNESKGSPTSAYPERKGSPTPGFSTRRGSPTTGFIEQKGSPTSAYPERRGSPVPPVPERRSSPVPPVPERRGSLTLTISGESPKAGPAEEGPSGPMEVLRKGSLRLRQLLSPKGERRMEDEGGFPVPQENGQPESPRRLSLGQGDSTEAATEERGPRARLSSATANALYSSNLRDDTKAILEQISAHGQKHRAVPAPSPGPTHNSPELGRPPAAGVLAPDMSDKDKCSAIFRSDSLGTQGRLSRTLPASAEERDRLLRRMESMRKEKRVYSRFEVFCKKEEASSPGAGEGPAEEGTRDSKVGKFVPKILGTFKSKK

T2: FAM83H with endogenous C-terminal GFP tag (A549 FAM83H^GFP/GFP) (human (endogenous in A549)) (UniProt Q6ZRV2)
T2 sequence: T1 sequence

T3: GFP-FAM83H (HEK-293 Flp-In T-REx, doxycycline-induced) (human) (UniProt Q6ZRV2)
T3 sequence: T1 sequence

B1: protein UNC45 homolog A (UNC45A), endogenous (protein, UniProt Q9H3U1 1-944)
chain: MTVSGPGTPEPRPATPGASSVEQLRKEGNELFKCGDYGGALAAYTQALGLDATPQDQAVLHRNRAACHLKLEDYDKAETEASKAIEKDGGDVKALYRRSQALEKLGRLDQAVLDLQRCVSLEPKNKVFQEALRNIGGQIQEKVRYMSSTDAKVEQMFQILLDPEEKGTEKKQKASQNLVVLAREDAGAEKIFRSNGVQLLQRLLDMGETDLMLAALRTLVGICSEHQSRTVATLSILGTRRVVSILGVESQAVSLAACHLLQVMFDALKEGVKKGFRGKEGAIIVDPARELKVLISNLLDLLTEVGVSGQGRDNALTLLIKAVPRKSLKDPNNSLTLWVIDQGLKKILEVGGSLQDPPGELAVTANSRMSASILLSKLFDDLKCDAERENFHRLCENYIKSWFEGQGLAGKLRAIQTVSCLLQGPCDAGNRALELSGVMESVIALCASEQEEEQLVAVEALIHAAGKAKRASFITANGVSLLKDLYKCSEKDSIRIRALVGLCKLGSAGGTDFSMKQFAEGSTLKLAKQCRKWLCNDQIDAGTRRWAVEGLAYLTFDADVKEEFVEDAAALKALFQLSRLEERSVLFAVASALVNCTNSYDYEEPDPKMVELAKYAKQHVPEQHPKDKPSFVRARVKKLLAAGVVSAMVCMVKTESPVLTSSCRELLSRVFLALVEEVEDRGTVVAQGGGRALIPLALEGTDVGQTKAAQALAKLTITSNPEMTFPGERIYEVVRPLVSLLHLNCSGLQNFEALMALTNLAGISERLRQKILKEKAVPMIEGYMFEEHEMIRRAATECMCNLAMSKEVQDLFEAQGNDRLKLLVLYSGEDDELLQRAAAGGLAMLTSMRPTLCSRIPQVTTHWLEILQALLLSSNQELQHRGAVVVLNMVEASREIASTLMESEMMEILSVLAKGDHSPVTRAAAACLDKAVEYGLIQPNQDGE
B2: FAM83H, endogenous (U2OS) (protein, UniProt Q6ZRV2 1-1179)
chain: T1 sequence
B3: CEP131, endogenous (U2OS) (protein, UniProt Q9UPN4 1-1083)
chain: MKGTRAIGSVPERSPAGVDLSLTGLPPPVSRRPGSAATTKPIVRSVSVVTGSEQKRKVLEATGPGGSQAINNLRRSNSTTQVSQPRSGSPRPTEPTDFLMLFEGSPSGKKRPASLSTAPSEKGATWNVLDDQPRGFTLPSNARSSSALDSPAGPRRKECTVALAPNFTANNRSNKGAVGNCVTTMVHNRYTPSERAPPLKSSNQTAPSLNNIIKAATCEGSESSGFGKLPKNVSSATHSARNNTGGSTGLPRRKEVTEEEAERFIHQVNQATVTIQRWYRHQVQRRGAGAARLEHLLQAKREEQRQRSGEGTLLDLHQQKEAARRKAREEKARQARRAAIQELQQKRALRAQKASTAERGPPENPRETRVPGMRQPAQELSPTPGGTAHQALKANNTGGGLPAAGPGDRCLPTSDSSPEPQQPPEDRTQDVLAQDAAGDNLEMMAPSRGSAKSRGPLEELLHTLQLLEKEPDVLPRPRTHHRGRYAWASEVTTEDDASSLTADNLEKFGKLSAFPEPPEDGTLLSEAKLQSIMSFLDEMEKSGQDQLDSQQEGWVPEAGPGPLELGSEVSTSVMRLKLEVEEKKQAMLLLQRALAQQRDLTARRVKETEKALSRQLQRQREHYEATIQRHLAFIDQLIEDKKVLSEKCEAVVAELKQEDQRCTERVAQAQAQHELEIKKLKELMSATEKARREKWISEKTKKIKEVTVRGLEPEIQKLIARHKQEVRRLKSLHEAELLQSDERASQRCLRQAEELREQLEREKEALGQQERERARQRFQQHLEQEQWALQQQRQRLYSEVAEERERLGQQAARQRAELEELRQQLEESSSALTRALRAEFEKGREEQERRHQMELNTLKQQLELERQAWEAGRTRKEEAWLLNREQELREEIRKGRDKEIELVIHRLEADMALAKEESEKAAESRIKRLRDKYEAELSELEQSERKLQERCSELKGQLGEAEGENLRLQGLVRQKERALEDAQAVNEQLSSERSNLAQVIRQEFEDRLAASEEETRQAKAELATLQARQQLELEEVHRRVKTALARKEEAVSSLRTQHEAAVKRADHLEELLEQHRRPTPSTK

How the values were obtained:
[1] = molecular target: T1, FAM83H-GFP (U2OS Flp-In T-REx, doxycycline-induced) (human); assay: proximity labelling; FLAG-TurboID-aGFP6M (or FLAG-TurboID control) in U2OS Flp-In T-REx cells expressing FAM83H-GFP or FAM83E-GFP; 50 μM biotin 10 min; streptavidin beads 16 h from 4 mg extract; LC-MS/MS
[2] = molecular target: FAM83E-GFP (U2OS Flp-In T-REx, doxycycline-induced) (UniProt Q2M2I3); assay: as above
[3] = molecular target: T1, FAM83H-GFP (U2OS Flp-In T-REx, doxycycline-induced) (human); assay: proximity labelling; FLAG-TurboID-aGFP6M (or FLAG-TurboID control) in U2OS Flp-In T-REx cells expressing FAM83H-GFP or FAM83E-GFP; 50 μM biotin 10 min; streptavidin pull-down; immunoblot
[4] = molecular target: FAM83E-GFP (U2OS Flp-In T-REx, doxycycline-induced) (UniProt Q2M2I3); assay: as above
[5] = molecular target: T2, FAM83H with endogenous C-terminal GFP tag (A549 FAM83H^GFP/GFP) (human (endogenous in A549)); assay: affinity purification with mass spectrometry; GFP-Trap A beads, 16 h, 6 mg extract of A549 FAM83H^GFP/GFP or A549 wild type cells; SDS-PAGE, trypsin, LC-MS/MS
[6] = molecular target: T3, GFP-FAM83H (HEK-293 Flp-In T-REx, doxycycline-induced) (human); assay: affinity purification with mass spectrometry; anti-GFP IPs from HEK-293 (N-terminal GFP) or U2OS (C-terminal GFP) Flp-In T-REx cells induced to express GFP-tagged FAM83 proteins; LC-MS/MS; data set PXD009335
[7] = molecular target: mCherry-CK1δ (endogenous knock-in, U2OS CK1^mCherry/mCherry) (human (endogenous in U2OS)) (UniProt P48730); assay: affinity purification with mass spectrometry; mCherry IP from lysates of U2OS CK1^mCherry/mCherry knock-in cells, U2OS wild type cells as control; mass spectrometry
[8] = molecular target: mCherry-CK1ε (endogenous knock-in, U2OS CK1^mCherry/mCherry) (human (endogenous in U2OS)) (UniProt P49674); assay: as above
[9] = molecular target: mCherry-CK1α (endogenous knock-in, U2OS CK1^mCherry/mCherry) (human (endogenous in U2OS)) (UniProt P48729); assay: as above

Row | Molecule | binding [1] | binding [2] | also measured
1 | AKAP9, endogenous (U2OS) (from UniProt Q99996 1-3907) | no binding | binds | –
2 | VPS13B, endogenous (U2OS) (from UniProt Q7Z7G8 1-4022) | no binding | binds | –
3 | protein kinase CK1 isoform ε (CK1ε), endogenous (from UniProt P49674 1-416) (enzyme) | binds | binds | binding [3]: binds; binding [4]: binds; binding [5]: binds
4 | B1 | – | – | binding [6]: binds
5 | B2 | – | – | binding [7]: binds; binding [8]: binds; binding [9]: binds
6 | B3 | no binding | binds | –

These are yes or no findings as the source states them, for the method shown. Binding seen in cells or lysates may run through a third protein. These calls come from enrichment with a bait or labelling near it, and not all partners need be listed. For part of these data: A no says only that the protein was not detected with the bait. For part of these data: Sequences can lack the tags named with a protein.
